# According to US6963769B1, “Method for enhancing contrast produced by MRI” (The United States of America as represented by the …, priority 1999, dated 2005):
# Experiments:
# [1] = in vitro CEDST spectra of candidate contrast agents (proton chemical exchange with water), 7T
# [2] = ratiometric CEDST analysis of two exchange sites versus pH; assay type: physicochemical; conditions: 62.5 mM, Site 1: 2.67 ppm, Site 2: 5.00 ppm
# [3] = 62.5 mM, 37° C., 20 mM phosphate buffer, site (ppm) of the same table row
# [4] = 62.5 mM, 0-30 mM pH 6 phosphate buffer
# [5] = 125 mM, 37° C., 20 mM phosphate buffer, site (ppm) of the same table row
smiles,measurement,setting,value
O=C1NCCN1 [2-Imidazolidone],pH where the greatest proton chemical exchange effect was noted,"[1]; imidazole derivatives, ring protons (—NH), concentration not given, 37° C., 20 mM phosphate buffer",5.0 and 8.0
O=C1CC(=O)NC(=S)N1 [2-Thio-Barbituric Acid],pH of exchange optimum / peak ST effect,"[1]; 62.5 mM, 37° C.",4.0
same,pH where the greatest proton chemical exchange effect was noted,[1]; [3],5.0
"O=C1CCNC(=O)N1 [5,6 Dihydrouracil]",pH region in which the agent is effective (ratiometric standard curve),[2],~6.5
same,effect of phosphate concentration on the site at 2.67 ppm,[1]; [4],significantly affected by changes in phosphate concentration
same,effect of phosphate concentration on the site at 5.00 ppm,[1]; [4],substantially unaffected by changes in phosphate concentration
same,pH where the greatest proton chemical exchange effect was noted,[1]; [3],6.0 and 7.0
same,pH at which the exchange site at 2.67 ppm optimizes,"[1]; 62.5 mM, 37° C., 2.67 ppm site",7
same,pH at which the exchange site at 5.0 ppm optimizes,"[1]; 62.5 mM, 37° C., 5.0 ppm site",6
N[C@@H](Cc1c[nH]c2ccc(O)cc12)C(=O)O [5-Hydroxy-Tryptophan],pH where the greatest proton chemical exchange effect was noted,[1]; [3],4.0 and 8.0
same,pH of minimum Ms value,[1]; 5.33 ppm site (first of 'respectively'),4
same,pH range over which exchange rates were suitable,[1]; indole ring —NH,7.0-8.0
O=C(O)C1CCN1 (stereo not shown) [Azetidine-2-Carboxylic Acid],pH where the greatest proton chemical exchange effect was noted,[1]; [3],5.0
"CCC1(CC)C(=O)NC(=O)NC1=O [Barbital (5,5-Diethyl-Barbituric Acid), 5,5-Diethyl-Barbituric Acid]",pH where the greatest proton chemical exchange effect was noted,[1]; [3],4.0
O=C1CC(=O)NC(=O)N1 [Barbituric Acid],pH of exchange optimum / peak ST effect,"[1]; 62.5 mM, 37° C.",~6.5
same,pH where the greatest proton chemical exchange effect was noted,[1]; [3],6.5
same,saturation power level (B1) at which the ST effect optimizes,"[1]; 125 mM, pH 7.0, 37° C. (FIG. 5)",about 16 ×10^−7 T
O=C1CNC(=O)N1 [Hydantoin],pH where the greatest proton chemical exchange effect was noted,[1]; [3],4.0 and 6.0
C[C@H](N)C(=O)O [L-Alanine],pH where the greatest proton chemical exchange effect was noted,[1]; [5],4.0
NC(=O)CC[C@H](N)C(=O)O [L-Glutamine],pH where the greatest proton chemical exchange effect was noted,[1]; [5],5.2
NCCCC[C@H](N)C(=O)O [L-Lysine],pH where the greatest proton chemical exchange effect was noted,[1]; [5],4.0
N[C@@H](Cc1c[nH]c2ccccc12)C(=O)O [L-Tryptophan],pH where the greatest proton chemical exchange effect was noted,"[1]; 35 mM, —NH2, 37° C., 20 mM phosphate buffer",6.5
O=C1NC(=O)C(=O)N1 [Parabanic Acid],pH where the greatest proton chemical exchange effect was noted,[1]; [3],7.0 and 8.0
O=C(O)C1CCCCN1 (stereo not shown) [Pipecolinic Acid],pH where the greatest proton chemical exchange effect was noted,[1]; [3],5.0
Cc1cn([C@H]2C[C@H](O)[C@@H](CO)O2)c(=O)[nH]c1=O [Thymidine],pH where the greatest proton chemical exchange effect was noted,"[1]; 125 mM, 3-NH, 37° C., 2 mM phosphate buffer",5.0

# Where “and” joins values, the source holds several entries; their conditions need not be identical. Identical values can stand only once.
